The values below come from publication PMC6448818, “A novel evolutionary conserved mechanism of RNA stability regulates synexpression of primordial germ cell-specific genes prior to the sex-determination stage in medaka”.

The exact form of at least one protein or probe is not confirmed. For some assays here: No signal at the amounts used counts as a negative. For some assays here: Protein sequences can lack the tags named with them.

Data set [1] has as its target T1, Ol-bsf (Ol-lrpprc, Bicoid Stability Factor) (Oryzias latipes) (UniProt H2LIH1).
T1 sequence (looked up, limits assumed): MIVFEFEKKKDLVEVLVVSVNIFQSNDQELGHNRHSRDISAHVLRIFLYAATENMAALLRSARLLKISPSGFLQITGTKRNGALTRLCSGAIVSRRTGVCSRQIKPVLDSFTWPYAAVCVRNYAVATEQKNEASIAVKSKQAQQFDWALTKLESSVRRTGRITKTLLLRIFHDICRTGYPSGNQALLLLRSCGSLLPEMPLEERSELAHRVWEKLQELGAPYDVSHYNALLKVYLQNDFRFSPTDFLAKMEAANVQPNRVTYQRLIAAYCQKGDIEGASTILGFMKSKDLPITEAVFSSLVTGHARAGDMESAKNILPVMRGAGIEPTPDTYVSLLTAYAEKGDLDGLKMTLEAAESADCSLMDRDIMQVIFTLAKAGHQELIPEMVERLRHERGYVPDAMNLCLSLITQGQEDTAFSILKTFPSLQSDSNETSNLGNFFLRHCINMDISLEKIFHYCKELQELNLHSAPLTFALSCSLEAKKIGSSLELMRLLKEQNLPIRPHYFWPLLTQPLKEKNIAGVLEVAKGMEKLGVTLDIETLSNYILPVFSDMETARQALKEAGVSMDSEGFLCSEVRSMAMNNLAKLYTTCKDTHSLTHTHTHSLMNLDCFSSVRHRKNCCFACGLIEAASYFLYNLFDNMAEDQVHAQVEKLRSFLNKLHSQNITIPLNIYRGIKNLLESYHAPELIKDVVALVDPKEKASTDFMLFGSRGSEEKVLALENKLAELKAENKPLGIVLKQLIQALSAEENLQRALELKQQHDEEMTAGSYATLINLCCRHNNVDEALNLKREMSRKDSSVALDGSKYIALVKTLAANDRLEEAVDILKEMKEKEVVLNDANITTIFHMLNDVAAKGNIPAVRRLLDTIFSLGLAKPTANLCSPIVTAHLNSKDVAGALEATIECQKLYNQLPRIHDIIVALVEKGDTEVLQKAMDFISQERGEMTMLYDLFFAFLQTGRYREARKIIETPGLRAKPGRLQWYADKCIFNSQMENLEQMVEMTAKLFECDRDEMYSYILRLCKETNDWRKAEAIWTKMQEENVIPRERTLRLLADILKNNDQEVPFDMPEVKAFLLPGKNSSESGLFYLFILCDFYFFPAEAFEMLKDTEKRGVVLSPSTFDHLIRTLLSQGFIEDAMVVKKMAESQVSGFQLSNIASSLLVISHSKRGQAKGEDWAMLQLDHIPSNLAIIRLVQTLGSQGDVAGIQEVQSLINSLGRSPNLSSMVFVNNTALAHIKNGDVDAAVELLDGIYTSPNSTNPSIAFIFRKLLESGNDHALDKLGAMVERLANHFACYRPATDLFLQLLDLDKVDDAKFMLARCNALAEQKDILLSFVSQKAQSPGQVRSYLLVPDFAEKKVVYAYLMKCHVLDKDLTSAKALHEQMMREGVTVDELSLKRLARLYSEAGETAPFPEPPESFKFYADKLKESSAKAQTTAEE
As to the kind of experiment: EMSA. To be noted: labelled fly probe; EMSA: 10 mM Tris-HCl pH 7.9, 100 mM KCl, 10% glycerol, 5 mM MgCl2, 1 ug torula rRNA, 0.075% Triton X-100, 1 mM DTT, 1 ug BSA, 0.5 ng probe, 2 or 4 uL IVT mix in 20 uL; protein translated in vitro; protein details: FLAG; label: 5'-32P when probe, unlabelled when competitor. On the technique in general: In EMSA bound probe runs differently from free probe, usually more slowly.

Data set [2] deals with Ol-cug-bp1 (Oryzias latipes). As to the kind of experiment: EMSA. Conditions: self-competition 1/1 to 1/5 gave progressive loss of shift; EMSA: 10 mM Tris-HCl pH 7.9, 100 mM KCl, 10% glycerol, 5 mM MgCl2, 1 ug torula rRNA, 0.075% Triton X-100, 1 mM DTT, 1 ug BSA, 0.5 ng probe, 2 or 4 uL IVT mix in 20 uL; protein translated in vitro; protein details: FLAG; label: 5'-32P when probe, unlabelled when competitor.

Data set [3] deals with Ol-cug-bp2 (Oryzias latipes). As to the kind of experiment: EMSA. Conditions: no convincing evidence for specific binding; EMSA: 10 mM Tris-HCl pH 7.9, 100 mM KCl, 10% glycerol, 5 mM MgCl2, 1 ug torula rRNA, 0.075% Triton X-100, 1 mM DTT, 1 ug BSA, 0.5 ng probe, 2 or 4 uL IVT mix in 20 uL; protein translated in vitro; label: 5'-32P when probe, unlabelled when competitor.
For data set [4], the system named is Ol-cug-bp1 (Oryzias latipes). As to the kind of experiment: competition with a labelled probe. To be noted: vs labelled D3U-box, EMSA: 10 mM Tris-HCl pH 7.9, 100 mM KCl, 10% glycerol, 5 mM MgCl2, 1 ug torula rRNA, 0.075% Triton X-100, 1 mM DTT, 1 ug BSA, 0.5 ng probe, 2 or 4 uL IVT mix in 20 uL, protein translated in vitro, protein details: FLAG, label: unlabelled competitor.

Consider UGGUUCACGUCUGCUGCAGCUCUCUGACUCU, for which the binding result in data set [1] is on record as “binds”.
Regarding “UGGUUCACGUCUGCUGCAGGUCUCUGACUCU [native medaka D3U-box]”, the binding result in data set [2] is listed as “binds”; in data set [3] it was “no binding”.
Turning to “UGGUUCACGUUCUUCAAGACGCUCUGACUCU [D3U-scrambled box (S-D3U-box)]”, in data set [4] (1/1 to 1/10), the binding result is “no binding”.
Regarding “UGGUUCACGUUCUUCACAGGUCUCUGACUCU [D3U-minus CUG box (CUGminus-D3U-box)]”, in data set [4] (1/1 to 1/5), the binding result is recorded as “no binding”.
